In paper PMC6957492, “Assembly and substrate recognition of curli biogenesis system” (Nature Communications, 2020):
These are yes or no findings as the source states them, for the method shown. Binding seen in cells or lysates may run through a third protein. Some results given as binding are weak or reduced against the parent protein; the word gives no strength. Sequences can lack the tags named with a protein.

Biological target: T1, CsgAN6 (co-purification construct) (E. coli K12)
T1 sequence: GVVPQY
Assay: pull-down; co-purification assay: linked constructs co-expressed in E. coli BL21 (DE3), membrane fraction solubilised in 1.5% DDM, Strep-Tactin column, eluted in 0.02% DDM; Coomassie blue

B1: CsgG (from the CsgEFG operon construct with C-terminal strep-tag II) (natural protein, E. coli K12, UniProt P0AEA2 16-277, looked up)
chain: CLTAPPKEAARPTLMPRAQSYKDLTHLPAPTGKIFVSVYNIQDETGQFKPYPASNFSTAVPQSATAMLVTALKDSRWFIPLERQGLQNLLNERKIIRAAQENGTVAINNRIPLQSLTAANIMVEGSIIGYESNVKSGGVGARYFGIGADTQYQLDQIAVNLRVVNVSTGEILSSVNTSKTILSYEVQAGVFRFIDYQRLLEGEVGYTSNEPVMLCLMSAIETGVIFLINDGIDRGLWDLQNKAERQNDILVKYRHMSVPPES
notes: also called CsgG channel; CsgG subcomplex; source: E. coli BL21 (DE3), co-expressed from the CsgEFG operon; membrane fraction solubilised in DDM/LDAO, purified (Strep-Tactin, SEC); not shown: strep-tag II, C-terminal, kept
B1 was tested, and the binding was “binds”.
